The record followed here is patent US20080176792A1, “VEGFR-1 TARGETING PEPTIDES” (priority 2000, published 2008).

Sequences of proteins named here, by UniProt entry; tags and fusion partners are left off. Residues count along the entry.
UniProt P17948, residues 27-758: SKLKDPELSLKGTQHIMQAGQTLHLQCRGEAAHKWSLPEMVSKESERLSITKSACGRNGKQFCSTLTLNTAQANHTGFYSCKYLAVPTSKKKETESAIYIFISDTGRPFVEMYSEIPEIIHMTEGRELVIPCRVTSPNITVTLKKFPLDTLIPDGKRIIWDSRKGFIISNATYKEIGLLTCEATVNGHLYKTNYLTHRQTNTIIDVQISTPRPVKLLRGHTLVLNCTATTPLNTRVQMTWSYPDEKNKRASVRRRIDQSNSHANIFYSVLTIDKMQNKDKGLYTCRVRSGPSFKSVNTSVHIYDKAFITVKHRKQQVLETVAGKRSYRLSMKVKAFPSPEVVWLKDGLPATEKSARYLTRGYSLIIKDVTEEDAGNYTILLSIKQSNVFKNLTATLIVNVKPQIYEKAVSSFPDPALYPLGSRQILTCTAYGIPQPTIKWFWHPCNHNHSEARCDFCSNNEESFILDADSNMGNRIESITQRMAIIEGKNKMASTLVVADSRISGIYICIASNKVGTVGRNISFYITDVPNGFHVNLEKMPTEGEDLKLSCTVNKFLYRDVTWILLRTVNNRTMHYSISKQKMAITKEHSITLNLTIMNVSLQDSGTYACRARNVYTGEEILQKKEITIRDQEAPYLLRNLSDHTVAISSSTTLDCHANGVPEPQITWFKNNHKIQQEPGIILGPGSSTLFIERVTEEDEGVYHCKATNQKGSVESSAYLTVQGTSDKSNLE

These are yes or no findings as the source states them, for the method shown. Some binding calls cover weakened binding; strength is not graded here.

The target of experiment [1] is T1, recombinant human VEGFR-1 (human, UniProt P17948 27-758, limits assumed).
T1 construct: Bought; immobilized on microtiter wells (1 ug in 50 ul PBS); also called Flt1
The experiment can be described thus: competition of clone-19 phage binding to immobilized VEGFR-1 (not shown).

The target in experiment [2] is T1, recombinant human VEGFR-1. The experiment is described as follows: summing up of the phage binding and competition assays on immobilized receptors.

Turning to CPQPRPLC (cyclized (peptides were synthesized, cyclized)) [synthetic cognate peptide CPQPRPLC (SEQ ID NO:6)], the binding result in experiment [1] and in experiment [2] was “binds” throughout.
